{"source": "patent US20060276394A1", "about": "“METHODS AND COMPOSITIONS FOR TREATING NEUROLOGICAL DISORDERS” (WYETH, priority 2002, published 2006)", "system": "Balb/C mice", "test": "mouse elevated zero maze (EZM)", "assay_type": "in vivo", "settings": "icv", "protocol": "To assess the anxiolytic activity of NBI-31772, mice receiving intraventricular administration of NBI-31772 were tested in an elevated zero maze (EZM) or in a four-plate appratus (FPT). NBI-31722 (availabe from Calbiochem/EMD Biosciences, Inc. of San Diego, Calif.) was administered in a volume of 2 μl. Balb/C mice were used for the elevated zero maze and Swiss-Webster mice were used for the four-plate test. One-way analysis of variance (ANOVA) was performed on behavioral data to determine effects of test compound treatments, followed by Least Significant Difference Tests for a post hoc analysis. Data is presented as the mean±SEM.\nThese effects are similar to those seen with reference anxiolytic compounds chlordiazepoxide and diazepam (Ring et al., Psychopharmacology (Berl.), 2006, 185(2):218-225) and are indicative of anxiolytic-like activity of NBI-31772 in the EZM."}
{"smiles": "O=C(O)c1cc2cc(O)c(O)cc2c(C(=O)c2ccc(O)c(O)c2)n1", "note": "[NBI-31772]", "values": [{"measurement": "total distance moved (cm)", "setting": "0.1-1.0 μg groups", "result": "no effect"}, {"measurement": "total distance moved (cm)", "setting": "3 and 10 μg doses", "result": "significant increases"}]}
